# Source: the supplement of paper PMC12067093, “Discovery and optimisation of a covalent ligand for TRIM25 and its application to targeted protein ubiquitination” (Chemical Science, 2025)
# Protein sequences, listed by entry. Tags and fused reporters are not part of them. Lines headed by an entry give the natural chain unless they say otherwise; changes in a name come on top.
# UniProt Q86UX7, whole entry, looked up: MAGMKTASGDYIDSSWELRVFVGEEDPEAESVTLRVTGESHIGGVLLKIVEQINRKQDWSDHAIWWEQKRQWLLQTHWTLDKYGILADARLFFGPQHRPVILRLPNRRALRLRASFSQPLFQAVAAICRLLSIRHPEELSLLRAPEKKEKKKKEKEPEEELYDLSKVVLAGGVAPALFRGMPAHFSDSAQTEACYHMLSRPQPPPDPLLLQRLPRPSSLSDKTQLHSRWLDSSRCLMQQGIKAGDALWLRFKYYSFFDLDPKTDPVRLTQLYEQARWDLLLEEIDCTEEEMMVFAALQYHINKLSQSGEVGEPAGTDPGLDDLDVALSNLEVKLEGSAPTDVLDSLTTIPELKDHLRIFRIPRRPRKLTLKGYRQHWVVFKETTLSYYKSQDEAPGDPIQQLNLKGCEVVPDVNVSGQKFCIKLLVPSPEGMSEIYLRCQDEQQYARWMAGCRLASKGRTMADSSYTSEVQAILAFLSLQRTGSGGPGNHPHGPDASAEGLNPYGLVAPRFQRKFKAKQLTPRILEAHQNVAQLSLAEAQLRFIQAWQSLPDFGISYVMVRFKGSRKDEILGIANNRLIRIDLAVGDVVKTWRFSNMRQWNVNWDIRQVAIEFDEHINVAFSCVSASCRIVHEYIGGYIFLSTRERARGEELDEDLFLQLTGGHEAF
# UniProt Q9NSD9: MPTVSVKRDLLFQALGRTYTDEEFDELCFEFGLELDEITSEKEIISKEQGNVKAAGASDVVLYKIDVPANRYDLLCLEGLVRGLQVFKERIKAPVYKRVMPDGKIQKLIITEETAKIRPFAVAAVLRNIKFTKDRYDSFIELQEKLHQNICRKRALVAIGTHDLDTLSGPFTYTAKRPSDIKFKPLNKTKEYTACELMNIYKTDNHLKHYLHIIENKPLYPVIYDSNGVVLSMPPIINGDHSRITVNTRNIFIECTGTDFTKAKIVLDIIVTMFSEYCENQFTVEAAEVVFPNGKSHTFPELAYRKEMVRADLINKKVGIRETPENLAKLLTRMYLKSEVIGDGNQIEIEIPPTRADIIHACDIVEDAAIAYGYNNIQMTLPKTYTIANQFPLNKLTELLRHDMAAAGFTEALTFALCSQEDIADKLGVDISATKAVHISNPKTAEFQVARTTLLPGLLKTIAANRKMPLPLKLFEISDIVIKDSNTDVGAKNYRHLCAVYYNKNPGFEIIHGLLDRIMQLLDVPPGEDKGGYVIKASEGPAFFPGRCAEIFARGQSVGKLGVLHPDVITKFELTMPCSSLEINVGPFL
# UniProt P49327, whole entry, looked up: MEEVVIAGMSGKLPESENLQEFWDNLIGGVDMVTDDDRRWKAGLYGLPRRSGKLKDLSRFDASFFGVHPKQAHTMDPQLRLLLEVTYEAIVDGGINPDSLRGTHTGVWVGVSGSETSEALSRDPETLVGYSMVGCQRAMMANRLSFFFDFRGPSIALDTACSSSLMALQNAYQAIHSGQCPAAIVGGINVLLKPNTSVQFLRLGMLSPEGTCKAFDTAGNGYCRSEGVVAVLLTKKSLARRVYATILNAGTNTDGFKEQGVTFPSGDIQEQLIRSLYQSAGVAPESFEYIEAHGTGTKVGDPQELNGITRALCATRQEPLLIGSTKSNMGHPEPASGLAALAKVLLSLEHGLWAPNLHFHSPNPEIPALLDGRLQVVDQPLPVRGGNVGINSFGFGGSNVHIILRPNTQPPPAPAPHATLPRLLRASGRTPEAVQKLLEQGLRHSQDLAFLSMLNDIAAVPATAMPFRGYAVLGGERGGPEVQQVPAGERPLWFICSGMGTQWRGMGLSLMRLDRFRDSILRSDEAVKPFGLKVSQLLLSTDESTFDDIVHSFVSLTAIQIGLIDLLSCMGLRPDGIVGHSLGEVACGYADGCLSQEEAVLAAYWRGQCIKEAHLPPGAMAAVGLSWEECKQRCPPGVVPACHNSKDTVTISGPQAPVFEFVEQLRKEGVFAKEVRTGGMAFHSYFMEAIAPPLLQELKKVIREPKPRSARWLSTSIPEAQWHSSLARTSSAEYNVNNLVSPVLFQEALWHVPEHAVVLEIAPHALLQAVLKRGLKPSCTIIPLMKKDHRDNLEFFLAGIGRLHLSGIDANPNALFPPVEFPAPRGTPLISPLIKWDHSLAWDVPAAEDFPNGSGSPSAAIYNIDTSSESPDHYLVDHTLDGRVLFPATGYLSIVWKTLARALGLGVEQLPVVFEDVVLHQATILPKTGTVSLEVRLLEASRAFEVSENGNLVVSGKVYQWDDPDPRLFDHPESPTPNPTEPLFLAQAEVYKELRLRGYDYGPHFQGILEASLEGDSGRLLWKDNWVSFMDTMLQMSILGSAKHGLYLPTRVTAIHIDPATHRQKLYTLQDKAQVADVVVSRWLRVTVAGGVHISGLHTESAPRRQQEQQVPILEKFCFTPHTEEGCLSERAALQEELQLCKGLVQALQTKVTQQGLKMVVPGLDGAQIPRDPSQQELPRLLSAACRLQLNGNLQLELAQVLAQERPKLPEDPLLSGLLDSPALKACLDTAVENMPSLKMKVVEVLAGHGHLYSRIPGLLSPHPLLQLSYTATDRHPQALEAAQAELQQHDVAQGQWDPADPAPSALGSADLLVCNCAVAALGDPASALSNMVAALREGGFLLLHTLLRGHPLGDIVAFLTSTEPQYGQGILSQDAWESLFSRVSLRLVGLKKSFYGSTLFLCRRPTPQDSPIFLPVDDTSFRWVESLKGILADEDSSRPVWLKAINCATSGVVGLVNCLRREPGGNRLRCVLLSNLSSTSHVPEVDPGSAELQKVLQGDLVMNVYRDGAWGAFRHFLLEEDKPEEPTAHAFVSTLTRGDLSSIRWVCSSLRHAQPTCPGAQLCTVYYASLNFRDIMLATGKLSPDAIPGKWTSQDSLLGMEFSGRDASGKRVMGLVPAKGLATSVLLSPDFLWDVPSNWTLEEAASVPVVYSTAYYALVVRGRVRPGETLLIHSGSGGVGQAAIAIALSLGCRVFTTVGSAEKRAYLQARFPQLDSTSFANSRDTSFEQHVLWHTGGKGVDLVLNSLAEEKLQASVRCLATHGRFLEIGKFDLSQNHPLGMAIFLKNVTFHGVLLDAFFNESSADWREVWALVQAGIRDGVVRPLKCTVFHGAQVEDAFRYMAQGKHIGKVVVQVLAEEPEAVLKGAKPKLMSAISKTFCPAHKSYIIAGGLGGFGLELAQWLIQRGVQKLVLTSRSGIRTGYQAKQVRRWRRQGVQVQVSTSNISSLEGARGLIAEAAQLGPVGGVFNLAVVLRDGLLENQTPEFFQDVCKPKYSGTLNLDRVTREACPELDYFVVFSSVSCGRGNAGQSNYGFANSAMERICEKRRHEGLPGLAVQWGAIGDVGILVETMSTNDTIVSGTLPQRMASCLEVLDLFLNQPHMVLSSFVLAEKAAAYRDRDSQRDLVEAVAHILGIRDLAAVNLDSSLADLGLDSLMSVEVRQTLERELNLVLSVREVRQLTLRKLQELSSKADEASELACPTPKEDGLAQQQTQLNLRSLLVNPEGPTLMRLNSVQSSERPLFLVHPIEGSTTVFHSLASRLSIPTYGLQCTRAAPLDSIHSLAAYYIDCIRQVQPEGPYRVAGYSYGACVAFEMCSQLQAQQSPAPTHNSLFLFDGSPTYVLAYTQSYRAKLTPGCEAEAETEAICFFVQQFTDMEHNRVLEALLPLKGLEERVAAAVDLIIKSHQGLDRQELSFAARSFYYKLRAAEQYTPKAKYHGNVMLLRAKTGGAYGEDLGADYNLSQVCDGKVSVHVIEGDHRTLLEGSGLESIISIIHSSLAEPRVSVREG
# UniProt Q96K12: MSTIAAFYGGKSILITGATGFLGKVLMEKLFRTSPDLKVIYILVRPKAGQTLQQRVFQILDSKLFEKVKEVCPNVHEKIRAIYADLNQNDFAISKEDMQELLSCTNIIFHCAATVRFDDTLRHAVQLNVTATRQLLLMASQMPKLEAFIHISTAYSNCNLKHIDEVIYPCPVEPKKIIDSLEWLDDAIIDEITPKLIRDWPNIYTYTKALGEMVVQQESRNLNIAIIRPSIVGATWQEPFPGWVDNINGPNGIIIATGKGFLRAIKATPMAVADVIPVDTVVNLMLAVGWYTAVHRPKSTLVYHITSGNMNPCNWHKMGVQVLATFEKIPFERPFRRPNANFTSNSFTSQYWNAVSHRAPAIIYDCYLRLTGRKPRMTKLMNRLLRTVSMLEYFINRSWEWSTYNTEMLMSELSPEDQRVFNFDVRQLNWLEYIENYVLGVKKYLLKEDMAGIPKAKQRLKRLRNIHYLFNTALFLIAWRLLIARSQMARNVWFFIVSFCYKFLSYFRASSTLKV
# UniProt Q658Y4: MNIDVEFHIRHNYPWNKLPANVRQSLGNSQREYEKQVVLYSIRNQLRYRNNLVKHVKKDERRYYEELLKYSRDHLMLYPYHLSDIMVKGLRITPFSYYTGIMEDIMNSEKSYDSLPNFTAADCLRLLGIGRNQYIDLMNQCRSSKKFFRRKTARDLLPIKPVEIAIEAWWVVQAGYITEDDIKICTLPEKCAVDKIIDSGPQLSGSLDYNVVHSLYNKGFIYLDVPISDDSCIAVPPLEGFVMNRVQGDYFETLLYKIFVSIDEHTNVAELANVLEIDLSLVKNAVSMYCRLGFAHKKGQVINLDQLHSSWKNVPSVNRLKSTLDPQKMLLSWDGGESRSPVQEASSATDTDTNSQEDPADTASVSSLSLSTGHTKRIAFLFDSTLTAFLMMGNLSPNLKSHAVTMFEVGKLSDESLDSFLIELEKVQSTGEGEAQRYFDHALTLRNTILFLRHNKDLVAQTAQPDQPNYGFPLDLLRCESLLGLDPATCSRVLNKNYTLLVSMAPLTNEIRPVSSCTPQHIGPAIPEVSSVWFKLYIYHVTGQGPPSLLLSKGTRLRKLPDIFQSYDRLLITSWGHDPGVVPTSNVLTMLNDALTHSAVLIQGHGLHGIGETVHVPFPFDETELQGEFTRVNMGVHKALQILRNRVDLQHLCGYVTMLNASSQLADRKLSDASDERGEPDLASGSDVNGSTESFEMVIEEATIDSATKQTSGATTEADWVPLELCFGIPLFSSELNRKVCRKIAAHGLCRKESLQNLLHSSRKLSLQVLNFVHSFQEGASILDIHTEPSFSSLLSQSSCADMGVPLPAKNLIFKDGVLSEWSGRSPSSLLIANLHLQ
# UniProt Q9Y324: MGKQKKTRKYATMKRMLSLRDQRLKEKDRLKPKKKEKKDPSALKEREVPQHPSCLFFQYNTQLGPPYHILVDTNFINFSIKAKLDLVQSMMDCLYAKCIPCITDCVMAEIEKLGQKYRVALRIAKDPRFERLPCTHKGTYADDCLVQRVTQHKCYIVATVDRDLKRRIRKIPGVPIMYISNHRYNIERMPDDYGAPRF
# The list shows a part of the results.
# Compound: Cc1cc(ccc1-c1ccccc1)C(=O)N1CCCN(CC1)C(=O)CCl [compound 10]
# Experiment: probe-labelled cysteine peptide fold change vs DMSO (competition) (log2 fold change); higher = less target engagement (more negative = stronger competition)
# Settings: 50 µM; THP-1; incubation time: 4 h
# 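Also: competitive profiling in live THP-1 cells: cysteine peptides tagged with an iodoacetamide desthiobiotin (IA-DTB) probe, intensity after compound treatment relative to DMSO-treated cells.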
row,Target,probe-labelled cysteine peptide fold change
1,FERMT3_Q86UX7_407_GCEVVPDVNVSGQK (UniProt Q86UX7),-0.04
2,FARSB_Q9NSD9_151_LHQNICR (UniProt Q9NSD9),0.00827
3,FASN_P49327_496_GGPEVQQVPAGERPLWFICSGMGTQWR (UniProt P49327),0.219
4,FASN_P49327_779_PSCTIIPLMK (UniProt P49327),-0.0245
5,FARSB_Q9NSD9_195_EYTACELMNIYK (UniProt Q9NSD9),-0.222
6,FAR2_Q96K12_158_LEAFIHISTAYSNCNLK (UniProt Q96K12),0.18
7,FASN_P49327_634+642_CPPGVVPACHNSK (UniProt P49327),-0.461
8,FBXL20_Q96IG2_351+364_HLGNGACAHDQLEVIELDNCPLITDASLEHLK (UniProt Q96IG2),-0.33
9,FAM91A1_Q658Y4_750_IAAHGLCR (UniProt Q658Y4),0.0943
10,FCF1_Q9Y324_93_AKLDLVQSMMDCLYAK (UniProt Q9Y324),-0.137
